Source: the supplement of paper PMC3334620
Whole data set: some 33,000 sequences, median “E-score (-0.5 to 0.5)” near -0.0014, cut for the highest 2% near 0.25. The list shows a part of the results.

Target: T1, Cad1 (UniProt P24813)
T1 sequence: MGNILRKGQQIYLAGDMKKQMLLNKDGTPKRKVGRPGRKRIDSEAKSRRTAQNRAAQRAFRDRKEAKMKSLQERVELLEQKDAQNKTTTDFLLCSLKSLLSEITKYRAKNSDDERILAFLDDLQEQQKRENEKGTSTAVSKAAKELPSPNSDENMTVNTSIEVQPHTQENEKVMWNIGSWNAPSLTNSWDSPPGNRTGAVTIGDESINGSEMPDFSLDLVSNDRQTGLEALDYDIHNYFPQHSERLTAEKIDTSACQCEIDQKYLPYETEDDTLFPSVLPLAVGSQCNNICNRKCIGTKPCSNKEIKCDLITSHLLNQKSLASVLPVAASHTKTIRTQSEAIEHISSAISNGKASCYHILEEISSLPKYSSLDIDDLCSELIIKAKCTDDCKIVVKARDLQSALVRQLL
Experiment: PBM E-score (8-mer binding enrichment) (E-score (-0.5 to 0.5)); higher = stronger / more preferred TF binding
Details: protein concentration: 100 nM; construct: GST-full length
Procedure, shortened: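 GST-tagged yeast TFs (full-length or DNA-binding domain) were made by PURExpress in vitro transcription/translation and applied at about 100-200 nM to universal all-10-mer Agilent arrays. The arrays were made double-stranded by primer extension, on fresh or once-stripped slides. Bound protein was detected with fluorescent anti-GST, and scans were normalised with masliner. Each ungapped eight-base word, pooled with its reverse complement, received an E-score (modified Wilcoxon-Mann-Whitney statistic) from the Universal PBM Analysis Suite.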

Sequence	PBM E-score
ACGCGGGA	0.118
ACTTTGTG	0.0102
GTTACATA	0.253
CTCCATTA	-0.11
AATATAAT	0.18
CCGACGAC	0.0892
ACCACAAA	0.166
CCTTAGAC	0.0261
AGGCAGCA	0.021
AAGGTGAT	-0.114
CGTGCCAG	-0.00762
CCCTCCAG	-0.309
AACCTCGC	0.0491
GACCGAGA	0.125
GTTGCCGA	0.0817
AAGCGTCG	0.0859
ATCGTCCC	0.158
AGCCTACT	-0.107
CCTACGCA	-0.125
GCCATCAA	0.149
CGTCTTCC	-0.178
TAACTTGA	0.02

Sequence	PBM E-score
GACGTGCA	0.12
CCCTACCC	-0.147
GCAAACGC	0.124
AGATGACT	-0.0927
AATATTCG	0.273
AGGCCTCG	-0.242
GCTTTGAC	0.106
ACCGACAC	0.126
ACCGGGCC	-0.0842
AGGTATAC	0.129
GACGTATC	-0.107
CAATCTCG	-0.0657
AAGGACGA	-0.161
ATGCTCCA	-0.0639
GAATTCGC	-0.0565
CGACGCCG	-0.0124
AAAAGAGG	-0.265
ACTAACAA	-0.0409
TCCAACAA	-0.0119
TAGTAGGA	-0.123
ATCATCAC	0.0639
CCGTAGCG	-0.261

Sequence	PBM E-score
TAATTGTA	0.196
AGAACCTC	-0.191
CTGGGGAA	-0.212
CCTCATCC	-0.35
CAGGTAGC	-0.0431
ACACCGTA	-0.104
ACTTCGCA	-0.0268
TCAAGTGA	-0.1
CTACGGGC	-0.262
AAGCATTA	0.00193
AATATTGA	0.17
TCTCAGAA	-0.0653
CAATGCGC	0.165
TGGGAAAA	-0.0204
CTTTATCC	0.0616
GTAACGTA	0.0425
ATTGGCTA	0.0477
AATTCTAG	0.0754
CAAGCAAC	0.0253
ACCGAAGA	0.0676
CTCGGCAA	0.0528
AGGATACC	-0.0932

Sequence	PBM E-score
AGGCACTA	-0.0654
ATACGTCC	-0.156
AGCTAGCG	0.111
AATCAATT	0.17
AAACACGT	-0.0203
CCTATAAG	-0.199
AGGTGGAA	0.0944
ACAAGTCG	-0.186
ACAGATCC	0.137
AGTTTAGA	-0.0131
GACGGGAA	0.0631
GAAGTCCC	-0.295
TGTACCAA	-0.0377
ACCGGCCG	-0.0241
GAACCCAC	0.116
CATTTCTA	0.136
AGAGTTGA	-0.0575
AGATTTCG	0.0453
ATGATACG	0.125
CTCTGGCC	-0.122

Taken from above.
PBM E-score, ATCATCAC reads 0.0639
PBM E-score, AAGCATTA reads 0.00193
PBM E-score, ACTTCGCA reads -0.0268
PBM E-score, GCTTTGAC reads 0.106
